In test [1] the target is Focal adhesion kinase (FAK), endogenous in HEK 293T cells (human (endogenous in HEK 293T)) (UniProt Q05397). The experiment in a line: co-IP; HEK 293T transfected with FLAG-tagged LRRK2 domains (F1-F7), lysed 48 h after transfection; precipitated with anti-FAK; western blot. Background: In western blotting, separated proteins are transferred to a membrane and probed.
For test [2], the target named is Focal adhesion kinase (FAK), endogenous in mouse brain (mouse (endogenous in brain)) (UniProt P34152). As to the kind of experiment: co-IP; endogenous proteins in mouse brain, human brain or rat primary microglia lysates (200-500 ug); antibodies against LRRK2 or FAK, Protein G agarose; buffer 1% Triton X-100, 150 mM NaCl, phosphate, 50 mM NaF, 1 mM EDTA, 1 mM Na3VO4; western blot; IgG as negative control.

Protein sequences, listed by entry. Tags and fused reporters are not part of them. Lines headed by an entry give the natural chain unless they say otherwise; changes in a name come on top.
UniProt P34152: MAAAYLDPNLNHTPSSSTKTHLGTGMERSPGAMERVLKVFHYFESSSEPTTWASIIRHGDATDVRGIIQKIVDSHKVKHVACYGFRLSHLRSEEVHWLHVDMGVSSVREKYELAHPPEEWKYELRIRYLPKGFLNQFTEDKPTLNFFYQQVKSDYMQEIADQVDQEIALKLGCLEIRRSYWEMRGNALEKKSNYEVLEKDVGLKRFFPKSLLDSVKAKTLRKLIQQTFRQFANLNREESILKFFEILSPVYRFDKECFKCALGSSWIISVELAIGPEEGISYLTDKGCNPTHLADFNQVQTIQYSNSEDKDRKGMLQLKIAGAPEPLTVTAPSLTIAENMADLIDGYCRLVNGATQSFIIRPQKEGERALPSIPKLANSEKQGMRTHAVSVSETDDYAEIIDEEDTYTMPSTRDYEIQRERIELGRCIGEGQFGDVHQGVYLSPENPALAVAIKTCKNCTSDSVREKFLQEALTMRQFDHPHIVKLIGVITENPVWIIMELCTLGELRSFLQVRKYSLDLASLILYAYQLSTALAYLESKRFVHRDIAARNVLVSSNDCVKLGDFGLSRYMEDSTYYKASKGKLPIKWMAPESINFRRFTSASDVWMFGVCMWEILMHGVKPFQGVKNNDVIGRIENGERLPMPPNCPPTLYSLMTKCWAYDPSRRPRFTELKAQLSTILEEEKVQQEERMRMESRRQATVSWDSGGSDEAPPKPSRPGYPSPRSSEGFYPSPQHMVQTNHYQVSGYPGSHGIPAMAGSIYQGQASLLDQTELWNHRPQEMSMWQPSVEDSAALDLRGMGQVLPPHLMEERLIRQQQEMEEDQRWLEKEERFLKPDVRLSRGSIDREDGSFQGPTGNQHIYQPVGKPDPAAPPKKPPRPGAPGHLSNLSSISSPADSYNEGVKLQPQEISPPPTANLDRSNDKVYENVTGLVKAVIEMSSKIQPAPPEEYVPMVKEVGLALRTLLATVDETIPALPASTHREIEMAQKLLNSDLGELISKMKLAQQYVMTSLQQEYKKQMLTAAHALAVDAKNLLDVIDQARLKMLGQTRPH
UniProt Q5S007: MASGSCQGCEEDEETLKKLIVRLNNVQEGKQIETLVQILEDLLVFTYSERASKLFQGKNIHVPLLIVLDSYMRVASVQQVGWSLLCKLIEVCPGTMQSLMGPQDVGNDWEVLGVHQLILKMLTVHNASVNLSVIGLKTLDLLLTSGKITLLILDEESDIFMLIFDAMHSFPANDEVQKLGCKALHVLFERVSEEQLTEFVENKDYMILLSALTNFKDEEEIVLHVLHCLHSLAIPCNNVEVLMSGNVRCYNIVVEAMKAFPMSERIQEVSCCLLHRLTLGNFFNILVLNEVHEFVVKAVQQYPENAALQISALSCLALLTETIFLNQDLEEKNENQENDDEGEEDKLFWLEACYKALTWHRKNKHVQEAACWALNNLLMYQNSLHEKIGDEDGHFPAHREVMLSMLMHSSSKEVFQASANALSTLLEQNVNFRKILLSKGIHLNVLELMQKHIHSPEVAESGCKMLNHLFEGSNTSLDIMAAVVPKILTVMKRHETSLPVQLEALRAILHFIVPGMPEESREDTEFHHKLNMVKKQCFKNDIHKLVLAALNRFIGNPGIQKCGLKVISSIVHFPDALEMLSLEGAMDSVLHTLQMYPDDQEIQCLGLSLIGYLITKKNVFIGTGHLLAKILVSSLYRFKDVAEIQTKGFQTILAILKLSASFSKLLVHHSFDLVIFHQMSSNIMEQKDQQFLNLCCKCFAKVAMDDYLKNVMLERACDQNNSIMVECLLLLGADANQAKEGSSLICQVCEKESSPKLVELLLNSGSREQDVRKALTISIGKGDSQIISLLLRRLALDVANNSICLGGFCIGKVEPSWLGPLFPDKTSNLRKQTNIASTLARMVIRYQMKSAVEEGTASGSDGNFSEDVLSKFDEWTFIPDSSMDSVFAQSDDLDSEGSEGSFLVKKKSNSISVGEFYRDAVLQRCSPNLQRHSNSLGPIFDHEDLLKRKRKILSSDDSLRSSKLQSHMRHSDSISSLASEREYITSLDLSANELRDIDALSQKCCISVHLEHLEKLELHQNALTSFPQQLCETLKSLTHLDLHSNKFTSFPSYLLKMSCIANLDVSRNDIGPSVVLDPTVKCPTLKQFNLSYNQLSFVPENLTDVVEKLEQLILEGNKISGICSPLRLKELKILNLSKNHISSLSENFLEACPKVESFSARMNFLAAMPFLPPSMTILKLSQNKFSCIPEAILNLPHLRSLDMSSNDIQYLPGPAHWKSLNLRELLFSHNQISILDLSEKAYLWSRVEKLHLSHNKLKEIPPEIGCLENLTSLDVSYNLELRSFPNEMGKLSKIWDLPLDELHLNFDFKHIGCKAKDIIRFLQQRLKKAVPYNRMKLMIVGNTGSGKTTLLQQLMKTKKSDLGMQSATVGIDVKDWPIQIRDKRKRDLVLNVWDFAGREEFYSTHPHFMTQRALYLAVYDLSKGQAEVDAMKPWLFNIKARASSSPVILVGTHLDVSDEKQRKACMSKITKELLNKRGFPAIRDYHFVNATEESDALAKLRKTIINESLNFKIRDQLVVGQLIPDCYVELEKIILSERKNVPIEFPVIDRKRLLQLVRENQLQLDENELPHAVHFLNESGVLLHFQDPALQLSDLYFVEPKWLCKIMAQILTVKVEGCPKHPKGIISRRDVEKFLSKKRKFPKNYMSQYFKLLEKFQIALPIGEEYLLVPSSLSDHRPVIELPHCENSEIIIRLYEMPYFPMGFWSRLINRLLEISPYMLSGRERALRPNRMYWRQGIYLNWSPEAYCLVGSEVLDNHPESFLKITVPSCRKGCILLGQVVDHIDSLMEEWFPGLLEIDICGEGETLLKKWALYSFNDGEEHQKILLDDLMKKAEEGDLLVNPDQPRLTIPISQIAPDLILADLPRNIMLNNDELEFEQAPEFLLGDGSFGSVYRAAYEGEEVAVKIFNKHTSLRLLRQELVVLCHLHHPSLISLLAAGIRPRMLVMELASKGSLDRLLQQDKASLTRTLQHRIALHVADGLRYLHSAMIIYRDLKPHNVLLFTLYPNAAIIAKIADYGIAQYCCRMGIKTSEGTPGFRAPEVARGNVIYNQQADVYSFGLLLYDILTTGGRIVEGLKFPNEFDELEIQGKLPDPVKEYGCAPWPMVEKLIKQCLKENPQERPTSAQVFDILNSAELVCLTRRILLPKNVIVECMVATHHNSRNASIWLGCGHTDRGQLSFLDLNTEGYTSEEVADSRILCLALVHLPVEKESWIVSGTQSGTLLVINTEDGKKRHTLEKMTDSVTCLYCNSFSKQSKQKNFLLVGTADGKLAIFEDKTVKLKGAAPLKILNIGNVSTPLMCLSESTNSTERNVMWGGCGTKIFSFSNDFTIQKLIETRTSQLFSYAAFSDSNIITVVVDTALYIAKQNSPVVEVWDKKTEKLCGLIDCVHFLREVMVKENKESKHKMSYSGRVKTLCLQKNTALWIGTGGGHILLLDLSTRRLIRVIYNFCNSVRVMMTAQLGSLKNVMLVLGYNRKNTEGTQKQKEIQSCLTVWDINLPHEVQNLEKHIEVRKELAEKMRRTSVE
UniProt Q5S006: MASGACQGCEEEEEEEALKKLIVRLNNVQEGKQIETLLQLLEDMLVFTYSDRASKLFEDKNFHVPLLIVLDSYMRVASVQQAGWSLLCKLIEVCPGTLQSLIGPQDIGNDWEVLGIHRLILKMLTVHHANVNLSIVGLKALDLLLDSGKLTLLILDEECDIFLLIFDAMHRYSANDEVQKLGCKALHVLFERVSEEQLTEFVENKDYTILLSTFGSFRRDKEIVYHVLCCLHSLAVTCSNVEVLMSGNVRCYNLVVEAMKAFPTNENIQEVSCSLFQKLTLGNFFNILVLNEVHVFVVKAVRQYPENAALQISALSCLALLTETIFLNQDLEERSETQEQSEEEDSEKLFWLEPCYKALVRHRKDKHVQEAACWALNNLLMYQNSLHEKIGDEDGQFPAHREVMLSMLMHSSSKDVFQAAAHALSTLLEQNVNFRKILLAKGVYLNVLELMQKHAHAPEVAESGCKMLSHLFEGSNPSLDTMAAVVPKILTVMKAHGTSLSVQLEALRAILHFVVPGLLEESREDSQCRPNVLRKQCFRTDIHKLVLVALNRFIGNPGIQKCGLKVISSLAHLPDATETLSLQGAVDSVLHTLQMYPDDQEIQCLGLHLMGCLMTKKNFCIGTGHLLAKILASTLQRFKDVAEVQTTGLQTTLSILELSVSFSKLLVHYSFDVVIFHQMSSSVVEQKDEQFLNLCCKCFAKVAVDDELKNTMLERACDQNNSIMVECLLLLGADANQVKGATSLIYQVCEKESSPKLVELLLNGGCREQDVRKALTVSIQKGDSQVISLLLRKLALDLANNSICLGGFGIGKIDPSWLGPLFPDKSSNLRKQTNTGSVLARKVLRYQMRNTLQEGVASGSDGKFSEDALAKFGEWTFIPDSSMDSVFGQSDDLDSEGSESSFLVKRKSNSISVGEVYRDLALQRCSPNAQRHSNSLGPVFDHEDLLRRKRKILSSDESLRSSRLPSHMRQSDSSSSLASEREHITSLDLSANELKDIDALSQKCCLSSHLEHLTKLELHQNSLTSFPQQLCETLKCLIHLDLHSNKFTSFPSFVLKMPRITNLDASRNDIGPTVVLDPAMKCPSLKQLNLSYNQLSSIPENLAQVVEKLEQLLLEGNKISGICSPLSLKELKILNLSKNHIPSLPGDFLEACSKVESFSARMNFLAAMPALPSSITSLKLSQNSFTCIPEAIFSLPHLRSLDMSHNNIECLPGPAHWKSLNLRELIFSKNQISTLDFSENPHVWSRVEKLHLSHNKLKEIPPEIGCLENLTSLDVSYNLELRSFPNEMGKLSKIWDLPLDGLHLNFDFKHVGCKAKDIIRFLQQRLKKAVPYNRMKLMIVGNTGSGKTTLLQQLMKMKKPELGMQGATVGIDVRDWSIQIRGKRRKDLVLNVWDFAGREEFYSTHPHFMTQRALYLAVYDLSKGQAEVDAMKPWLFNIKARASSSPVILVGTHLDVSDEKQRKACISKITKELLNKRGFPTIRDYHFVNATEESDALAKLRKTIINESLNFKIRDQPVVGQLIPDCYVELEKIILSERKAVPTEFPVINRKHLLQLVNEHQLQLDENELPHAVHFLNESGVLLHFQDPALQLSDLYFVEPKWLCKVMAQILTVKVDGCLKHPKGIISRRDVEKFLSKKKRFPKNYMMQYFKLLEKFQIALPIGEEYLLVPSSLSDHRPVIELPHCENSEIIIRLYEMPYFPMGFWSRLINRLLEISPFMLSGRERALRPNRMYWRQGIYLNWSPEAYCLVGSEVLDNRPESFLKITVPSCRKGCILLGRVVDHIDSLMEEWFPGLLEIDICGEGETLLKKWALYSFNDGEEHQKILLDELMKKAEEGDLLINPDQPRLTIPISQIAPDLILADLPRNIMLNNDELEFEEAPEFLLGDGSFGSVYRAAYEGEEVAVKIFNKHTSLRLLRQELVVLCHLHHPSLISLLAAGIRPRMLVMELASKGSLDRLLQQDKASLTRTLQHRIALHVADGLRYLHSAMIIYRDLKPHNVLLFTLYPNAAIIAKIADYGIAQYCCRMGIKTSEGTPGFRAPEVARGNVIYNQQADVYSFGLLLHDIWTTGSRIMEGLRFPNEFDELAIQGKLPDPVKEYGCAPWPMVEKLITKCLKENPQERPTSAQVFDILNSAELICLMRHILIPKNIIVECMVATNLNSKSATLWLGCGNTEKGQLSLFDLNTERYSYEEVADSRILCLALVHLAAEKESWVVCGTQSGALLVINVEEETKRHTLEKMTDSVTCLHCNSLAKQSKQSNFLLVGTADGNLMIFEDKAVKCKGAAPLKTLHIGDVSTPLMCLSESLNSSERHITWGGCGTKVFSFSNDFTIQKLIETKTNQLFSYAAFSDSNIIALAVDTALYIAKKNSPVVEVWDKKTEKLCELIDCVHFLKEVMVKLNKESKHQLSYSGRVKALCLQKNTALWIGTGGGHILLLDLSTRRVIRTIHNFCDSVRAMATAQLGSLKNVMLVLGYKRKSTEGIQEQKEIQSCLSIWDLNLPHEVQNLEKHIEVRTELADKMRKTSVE

The target in test [3] is Focal adhesion kinase (FAK), endogenous in mouse microglia (mouse (endogenous in primary microglia)) (UniProt P34152). As to the kind of experiment: proximity ligation; in situ PLA in fixed, permeabilised non-Tg and GS-Tg mouse microglia with or without 100 uM ADP for 5 min; antibodies against LRRK2 (N231B/34 or N241A/34) and FAK (#3285).
For test [4], the target named is FLAG-FAK (human FAK in p3xFLAG-CMV-7.1) (human) (UniProt Q05397). As to the kind of experiment: co-IP; HEK 293T co-transfected with Myc-LRRK2 (WT, GS or DA) and FLAG-FAK or FLAG-FAK domains, lysed 48 h after transfection; precipitated with anti-FLAG, Protein G agarose; western blot.
The target in test [5] is T1, FLAG-tagged FERM domain of FAK (human) (UniProt Q05397).
T1 sequence: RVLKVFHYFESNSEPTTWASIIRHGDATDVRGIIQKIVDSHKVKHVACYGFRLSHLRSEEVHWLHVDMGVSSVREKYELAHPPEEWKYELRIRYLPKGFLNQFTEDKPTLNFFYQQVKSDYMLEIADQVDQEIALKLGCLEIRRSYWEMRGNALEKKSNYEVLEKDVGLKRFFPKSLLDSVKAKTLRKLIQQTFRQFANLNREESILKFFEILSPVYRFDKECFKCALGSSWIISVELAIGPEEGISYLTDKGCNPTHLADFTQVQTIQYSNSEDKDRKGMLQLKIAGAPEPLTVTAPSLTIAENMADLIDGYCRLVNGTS
The description is as above.

For test [6], the target named is FLAG-tagged kinase domain of FAK (human) (UniProt Q05397). The description is as above.
For test [7], the target named is Leucine-rich repeat kinase 2 (LRRK2), endogenous in HEK 293T cells (human (endogenous in HEK 293T)) (UniProt Q5S007). The experiment in a line: co-IP; HEK 293T cells treated with 100 uM ADP for the indicated times or untreated; precipitated with an antibody against LRRK2; western blot for FAK; IgG as negative control.
Test [8] concerns the target Focal adhesion kinase (FAK), endogenous in human brain (human (endogenous in brain)) (UniProt Q05397). The experiment in a line: co-IP; endogenous proteins in mouse brain, human brain or rat primary microglia lysates (200-500 ug); antibodies against LRRK2 or FAK, Protein G agarose; buffer 1% Triton X-100, 150 mM NaCl, phosphate, 50 mM NaF, 1 mM EDTA, 1 mM Na3VO4; western blot; IgG as negative control.

The results in this text go back to PMC4647842.

No constants are given. Whether binding was seen depends on the method and setting. In cells and extracts the contact can be indirect. Some binding calls cover weakened binding; strength is not graded here. For some assays here: Sequences can lack the tags named with a protein.

For “FLAG-tagged kinase domain of LRRK2 (from UniProt Q5S007 1879-2138) (domain or fragment)”, the binding result in test [1] is “binds”.
For “Leucine-rich repeat kinase 2 (LRRK2), endogenous in mouse brain (from UniProt Q5S006 1-2527)”, the binding entry in test [2] is reported as “binds”.
Take “Leucine-rich repeat kinase 2 (LRRK2), endogenous in non-Tg mouse microglia (from UniProt Q5S006 1-2527)”: the binding result in test [3] is “binds”.
On to “C-terminal 3xMyc-tagged wild-type LRRK2 (from UniProt Q5S007 1-2527)”, for which the binding result in test [4], in test [5] and in test [6] was “binds” in each case.
As to “Focal adhesion kinase (FAK), endogenous in HEK 293T cells (from UniProt Q05397 1-1052)”, the binding result in test [7] was “binds”.
For “C-terminal 3xMyc-tagged D1994A-LRRK2 (from UniProt Q5S007 1-2527)”, in test [4], the binding entry is given as “binds”.
Regarding “G2019S-LRRK2 of G2019S-LRRK2 transgenic mice (GS-Tg microglia) (from UniProt Q5S007 1-2527)”, in test [3], the binding result was “binds”.
In the case of “C-terminal 3xMyc-tagged G2019S-LRRK2 (from UniProt Q5S007 1-2527)”, the binding result in test [4] is on record as “binds”.
Turning to “Leucine-rich repeat kinase 2 (LRRK2), endogenous in human brain (from UniProt Q5S007 1-2527)”, in test [8], the binding result was “binds”.
